Measured values reported in paper PMC6588345.
Results are given in words; binding and its absence hold for the method and conditions named. Some binding calls cover weakened binding; strength is not graded here.

By UniProt entry, the sequences of proteins in these tests, tags left out. Where a name states a change or a piece, a line headed by the entry shows the natural chain unless it says otherwise. Residues count along the entry.
UniProt Q61089: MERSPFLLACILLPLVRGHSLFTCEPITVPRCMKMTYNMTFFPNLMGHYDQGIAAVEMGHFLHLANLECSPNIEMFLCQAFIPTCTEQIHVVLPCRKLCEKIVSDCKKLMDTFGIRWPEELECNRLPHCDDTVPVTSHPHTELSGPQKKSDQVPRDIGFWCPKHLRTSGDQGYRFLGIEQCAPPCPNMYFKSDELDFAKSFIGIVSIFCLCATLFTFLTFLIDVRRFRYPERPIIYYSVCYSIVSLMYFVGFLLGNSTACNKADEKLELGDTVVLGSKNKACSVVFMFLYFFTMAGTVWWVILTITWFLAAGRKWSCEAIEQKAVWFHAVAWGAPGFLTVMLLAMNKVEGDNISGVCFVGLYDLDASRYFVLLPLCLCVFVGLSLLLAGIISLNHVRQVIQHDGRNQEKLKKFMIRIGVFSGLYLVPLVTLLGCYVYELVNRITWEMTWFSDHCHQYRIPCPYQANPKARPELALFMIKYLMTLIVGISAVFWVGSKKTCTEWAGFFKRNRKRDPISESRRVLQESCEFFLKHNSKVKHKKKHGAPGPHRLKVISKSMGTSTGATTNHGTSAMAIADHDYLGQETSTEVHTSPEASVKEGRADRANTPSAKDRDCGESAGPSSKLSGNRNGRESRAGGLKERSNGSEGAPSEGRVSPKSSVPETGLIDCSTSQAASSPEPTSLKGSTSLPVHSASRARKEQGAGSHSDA
UniProt P48744, residues 25-131: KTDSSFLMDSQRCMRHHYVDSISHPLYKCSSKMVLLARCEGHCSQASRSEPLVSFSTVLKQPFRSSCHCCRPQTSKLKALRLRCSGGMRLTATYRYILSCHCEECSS

What was measured:
[1] = molecular target: T1, Fz4CRD-Fz6 on HEK293T cells (mouse) (UniProt Q61088+Q61089); test: alkaline phosphatase (AP) fusion protein binding to live cells; serum-containing conditioned medium with the AP fusion protein on live transfected HEK293T cells, 4°C, 2 hr; washed, fixed with 4% PFA, endogenous AP heat denatured at 70°C, bound AP visualized with NBT/BCIP
T1 sequence: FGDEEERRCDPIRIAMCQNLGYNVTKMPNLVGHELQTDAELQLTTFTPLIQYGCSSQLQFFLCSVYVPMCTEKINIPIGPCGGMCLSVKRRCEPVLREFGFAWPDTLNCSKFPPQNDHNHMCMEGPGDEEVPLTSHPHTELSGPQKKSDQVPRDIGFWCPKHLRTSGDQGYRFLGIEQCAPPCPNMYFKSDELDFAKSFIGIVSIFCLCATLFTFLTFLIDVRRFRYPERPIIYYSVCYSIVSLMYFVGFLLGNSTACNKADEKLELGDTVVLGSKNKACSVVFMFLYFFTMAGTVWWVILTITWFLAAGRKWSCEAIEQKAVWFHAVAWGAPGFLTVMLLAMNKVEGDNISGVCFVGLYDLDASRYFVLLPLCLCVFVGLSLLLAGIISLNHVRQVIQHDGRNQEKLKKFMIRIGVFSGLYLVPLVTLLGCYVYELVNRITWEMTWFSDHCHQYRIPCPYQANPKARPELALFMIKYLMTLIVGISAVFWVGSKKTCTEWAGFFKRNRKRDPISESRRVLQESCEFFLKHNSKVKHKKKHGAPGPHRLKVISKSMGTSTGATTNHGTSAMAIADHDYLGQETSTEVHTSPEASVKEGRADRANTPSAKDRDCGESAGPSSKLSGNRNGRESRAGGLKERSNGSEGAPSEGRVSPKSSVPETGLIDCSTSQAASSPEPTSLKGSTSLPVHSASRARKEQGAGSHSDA

[2] = molecular target: T2, Fz4 on HEK293T cells (mouse) (UniProt Q61088); test: as above
T2 sequence: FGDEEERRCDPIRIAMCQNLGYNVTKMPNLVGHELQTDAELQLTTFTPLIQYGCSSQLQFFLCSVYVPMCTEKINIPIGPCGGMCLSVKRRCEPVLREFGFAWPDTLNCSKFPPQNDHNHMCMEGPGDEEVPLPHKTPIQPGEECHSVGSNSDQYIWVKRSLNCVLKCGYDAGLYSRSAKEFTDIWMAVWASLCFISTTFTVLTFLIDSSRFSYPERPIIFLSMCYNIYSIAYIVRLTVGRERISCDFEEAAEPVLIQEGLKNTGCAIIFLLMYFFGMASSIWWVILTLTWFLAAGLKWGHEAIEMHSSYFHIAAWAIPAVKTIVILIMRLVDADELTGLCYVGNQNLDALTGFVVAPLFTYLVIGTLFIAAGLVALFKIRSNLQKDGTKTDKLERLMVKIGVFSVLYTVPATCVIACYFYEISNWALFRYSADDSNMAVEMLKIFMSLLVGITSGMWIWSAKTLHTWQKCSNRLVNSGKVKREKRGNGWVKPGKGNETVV

binding [1]: binds | binding [2]: binds
Substance: AP-3xMyc-Norrin (from UniProt P48744 25-131) (ligand)
